Some of these results come from one statement about several compounds together.
System: chronically stressed rats
Assay: Sucrose preference test in chronically stressed rats
Assay type: in vivo
Experimental: The rats were housed in individual cages with light and temperature control (temperature: 21±2° C.; lights on at 8:00 AM and off at 8:00 PM). Food and water were available ad libitum. All experimental procedures were carried out in strict accordance with the National Institutes of Health guidelines for care and use of experimental animals. After an initial habituation period of 1 week, all animals were given access to bottle containing a sucrose solution in tap water for 1 hour and were tested for the baseline data of the sucrose preference test. According to the baseline data, the animals were divided into 9 groups (n=10-12 animals/each group), that is the control group, the stressed group, the stressed+fluoxetine group, the stressed+Example 1 group, the stressed+ginseng extract group, the stressed+Radix paeoniae Alba extract group, the stressed+Tree Peony Bark extract group, the stressed+Sharpleaf Galangal Fruit extract group, and the stressed+Radix Polygonum multiflorum Preparata extract group. […]
The rats could select between two bottles of liquid freely, one with 0.8% sucrose solution and one with tap water, after 23 h food and water deprivation. […] Tap water consumption and sucrose consumption were measured by weighting the bottles, and the sucrose preference were calculated based on the following formula: […]

CNCCC(Oc1ccc(C(F)(F)F)cc1)c1ccccc1 (stereo not shown) [fluoxetine]
Change of sucrose preference compared with the stressed group (in words): significantly increase the sucrose preference to varying degrees

— US10744173B2, “Traditional Chinese medicine compositions for alleviating stress” (Infinitus (China) Company Ltd., priority 2017, dated 2020)
